Experimental data: patent publication US20250122301A1 (IBIO, published 2025)
Numbering of substitutions follows the chain as printed. These are yes or no findings as the source states them, for the method shown. Some results given as binding are weak or reduced against the parent protein; the word gives no strength.

The chains behind the UniProt entries cited, without tags or fusion partners. Residues count along the entry.
UniProt P01589, residues 22-213: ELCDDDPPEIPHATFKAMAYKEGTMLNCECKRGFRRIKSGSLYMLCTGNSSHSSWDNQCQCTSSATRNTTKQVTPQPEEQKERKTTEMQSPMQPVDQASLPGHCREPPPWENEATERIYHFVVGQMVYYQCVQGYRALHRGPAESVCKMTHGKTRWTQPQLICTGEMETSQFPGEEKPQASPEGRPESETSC

Tests used:
[1] = target: full-length CD25 (human CD25, recombinant protein used on biosensors) (human) (UniProt P01589); experiment: BLI (Octet) cross block: CD25 on tip, Fab step, then IL-2 step
[2] = target: full-length CD25 (human CD25, recombinant protein used on biosensors) (human) (UniProt P01589); experiment: Octet, CD25 captured on 7G7B6-coated tip, then Fab
[3] = target: full-length CD25 (human CD25, recombinant protein used on biosensors) (human) (UniProt P01589); experiment: BLI (Octet): 7G7B6 on tip, CD25 captured, then Fab or Basiliximab, then buffer

B1: D5 Fab (Fab, V domains shown)
VH: HVQLQQSGAELVRPGTSVKISCKASGYTFTNYWLGWVKQRPGHGLEWIGDIYPGGGYTNYNEKFKGKATLTADTSSSTAYMQLSSLTSEDSAVYFCARVTPASWGQGTSLTVSS
VL: DIVMTQSQKFMSTSVGDRVSVTCKASQNVGTNVAWYQQKPGQSPKALIYSASYRYSGVPDRFTGSGSGTDFTLTISNVQSEDLAEYFCQQYNSYPYTFGGGTKLEMK
notes: Fab from mouse immune phage library, expressed in E. coli; also called Fab clone D5
[1]
  binding: binds
[2]
  binding: binds
[3]
  binding: binds

B2: D16 Fab (Fab, V domains shown)
VH: B1 VH with H1Q, L4M, S109T
VL: B1 VL with V3Q, Y96W, M106I
notes: Fab; also called Fab clone D16
[2]
  binding: binds
[3]
  binding: binds

B3: D17 Fab (Fab, V domains shown)
VH: B1 VH with H1Q, V2I, S109T, S114A
VL: B1 VL with V3L, M4L, Y96L, M106I
notes: Fab; also called Fab clone D17
[1]
  binding: binds
[2]
  binding: binds

B4: D11 Fab (Fab, V domains shown)
VH: QIQLQQPGAELVRPGVSLKISCKGSGYTFTDYAMHWVRQSHAKSLEWIGVISTYSGDAIYNQKFKGKATMTVDKSSSTAYLELARLTSDDSAIYYCARGVTFDYWGQGTTVTVSS
VL: DIQMTQTTSSLSASLGDRVTITCRASQDISNYLEWYQQKQGKSPQLLVYNAKTLAEGVPSRFSGSGSGTQFSLKINSLQPEDFGSYYCQHHYDTPYTFGGGTKLEIK
notes: Fab; also called Fab clone D11
[1]
  binding: binds
